Reference: PubChem BioAssay AID540256 (National Center for Advancing Translational Sciences (NCATS), 2011)
About 3,700 (1.2%) of roughly 300,000 compounds were called active. Inconclusive means that the source gave no clear call. Such entries were picked first, then a sample of the others. The call rests on the fitted dose curve; tested in HEK293 cells. A potency beside an inconclusive call is a rough fit, not a confirmed value.

Test: qHTS for Inhibitors of binding or entry into cells for Lassa Virus; further: nearly all actives have a fitted effect of over 50% in size
Details: Lassa virus pseudotype entry inhibition, cell reporter; activity change, negative = inhibition: at 37.9 µM (top of the series) unless noted
On the % scale 0 is the no-effect control and ±100 the full control effect; potency means the concentration at half of the fitted maximal effect.

SMILES | Potency | activity change, negative = inhibition
Cc1ccc(-c2cc(C(=O)N3CCN(C(=O)c4ccco4)CC3)[nH]n2)cc1C | inconclusive: 1.58 µM [inhibitor, full curve, poor fit] | 
CC1(C)CC(C(CCN(Cc2ccccc2)C(=O)c2ccco2)c2ccc(F)cc2)CCO1 (stereo unspecified) | inconclusive: 15.8 µM [inhibitor, single point] | 
CCCC(=O)c1cn(CC(=O)OC)c2ccccc12 |  | inactive: 12.9%
CCN(CC)c1ccc2cc(NC(=O)CCC(=O)O)c(=O)oc2c1 | inconclusive: 5.8 µM [inhibitor, partial curve] | 
Cc1ncoc1C(=O)Nc1ccccc1C(N)=O |  | inactive: 36% [at 14.3 µM]
CS(=O)(=O)NCCOc1ccc(S(=O)(=O)NCCOc2ccccc2)cc1 |  | inactive: -12.9%
Cc1ccc(/C=N/NC(=O)c2cccc3ccccc23)o1 | inconclusive: 20 µM [inhibitor, single point] | 
C#CC(=O)N(c1ccc(OC)c(OC)c1)C(C(=O)NC1CCCC1)c1cccs1 (stereo unspecified) | active: 7.94 µM | 
COc1cccc(NC(=O)CSc2nc3ccccc3n2C)c1 | inconclusive: 11.2 µM [activator, single point] | 
N#CCC(=O)N/N=C/c1cccc(Oc2ccccc2)c1 | inconclusive: 35.5 µM [inhibitor, single point] | 
O=C(C1CCCCC1)N1C[C@@H](n2cc(-c3ccc(F)cc3)nn2)[C@@H](O)C[C@@H]1c1ccccc1 |  | inactive: -2.27% [at 46.1 µM]
CCOC(=O)C1(C)/C(=N/Nc2ccccc2Cl)C(=O)C(=O)N1c1ccccc1 (stereo unspecified) |  | inactive: 11.8%
O=C(CSc1nnc(-c2cc3ccccc3cc2O)n1Cc1ccco1)c1ccc(F)cc1 | active: 23.1 µM | 
Cc1noc(/C=C/c2ccccc2F)c1S(=O)(=O)N1CCC(C(=O)N(C)Cc2ccco2)CC1 | inconclusive: 12.6 µM [inhibitor, partial curve, poor fit] | 
O=C(CC(=O)N/N=C/c1ccccc1)NCc1ccccc1 |  | inactive: 9.92% [at 46.1 µM]
CCc1ccc2c(CN3CCN(S(=O)(=O)c4cccs4)CC3)cc(=O)oc2c1 | active: 2.51 µM | 
Cc1ccccc1CN1C(=O)c2ccccc2Sc2ccc(C(=O)NCc3cccs3)cc21 | inconclusive: 10 µM [inhibitor, partial curve, poor fit] | 
CCOc1ccc(/C=N/NC(=O)CCC(=O)Nc2ccc(F)cc2)cc1 | inconclusive: 3.98 µM [inhibitor, full curve] | 
CCCCC(=O)OCc1nc(N)nc(Nc2ccccc2C)n1 | inconclusive: 29.1 µM [inhibitor, single point] | 
CCOC(=O)/C=c1\s/c(=C\c2c(OC)ccc3ccccc23)c(=O)n1CC(=O)NCC1CCCO1 (stereo unspecified) | inconclusive: 11.6 µM [inhibitor, partial curve, poor fit] | 
COc1cc2c(cc1OC)CN(C(=O)CSc1nc(N)c(C#N)cc1C#N)CC2 |  | inactive: 0.426%
CCOc1ccc(NC(=O)Cn2nc(-c3ccncc3)ccc2=O)cc1 |  | inactive: 2.57% [at 46.1 µM]
COc1cccc(-n2nc(C(=O)N3CCN(Cc4ccccc4)CC3)c3ccccc3c2=O)c1 | inconclusive: 9.2 µM [inhibitor, partial curve, poor fit] | 
CCOC(=O)N1CCN(C(=O)C(CC(C)C)NC(=O)C2CCCCC2)CC1 (stereo unspecified) | inconclusive: 4.61 µM [inhibitor, single point] | 

SMILES | Potency | activity change, negative = inhibition
Nc1nc(CN2CCN(c3ccccc3)CC2)nc(N2CCCc3ccccc32)n1 |  | inactive: -19.3%
CCN(CC)c1ccc(NC(=O)CNCc2ccccc2Cl)c(C)c1 | active: 10 µM | 
Cc1noc(-c2ccc(NCc3ccccc3)c([N+](=O)[O-])c2)n1 |  | inactive: 18.6% [at 46.1 µM]
C#CCNc1ccc2c(c1)OC[C@@H](C)NS2(=O)=O | inconclusive: 0.0018 µM [activator, full curve, poor fit] | 
COc1ccc2nc(NC(=O)c3cc(=O)c4ccccc4o3)sc2c1 |  | inactive: 11.2% [at 46.1 µM]
O=C(NCC1CCCO1)c1ccc(COc2ccc(Cl)cc2)cc1 (stereo unspecified) | inconclusive: 6.31 µM [inhibitor, full curve, poor fit] | 
COc1ccc(NC(=O)Cn2c(=O)n(CCc3ccccc3)c(=O)c3ccccc32)cc1 |  | inactive: 3.78% [at 46.1 µM]
COc1cccc(CN2C(=O)CCC2(C)C(=O)NCCc2ccc(OC)c(OC)c2)c1 (stereo unspecified) | inconclusive: 6.31 µM [activator, single point] | 
CNC(=O)c1nnsc1S(=O)(=O)c1ccc(Cl)cc1 | inconclusive: 12.6 µM [inhibitor, partial curve, poor fit] | 
O=C(CC1SC(=Nc2ccccc2)N(Cc2ccccn2)C1=O)Nc1ccc(Br)cc1 (stereo unspecified) |  | inactive: -27.8%
COc1ccc(OC)c(-c2cc(C(=O)Nc3cnn(Cc4ccc(Cl)cc4Cl)c3)no2)c1 |  | inactive: -8.83% [at 46.1 µM]
CCCN(CCC)CCCOC(=O)c1ccc(Cl)cc1Cl | inconclusive: 35.5 µM [inhibitor, single point] | 
COC(=O)C1=C(SC)N(c2ccccc2)C(c2ccccc2)CC1=O (stereo unspecified) |  | inactive: 2.16%
C=CCn1c(O)c(/C(CC)=N/NC(=S)Nc2ccccc2)c(=O)[nH]c1=O |  | inactive: 15.3%
CCN1CCN(c2ncc3c(n2)CCN(Cc2ccc(Br)s2)C3)CC1 | inconclusive: 17.8 µM [inhibitor, partial curve, poor fit] | 
Cc1cccc2c(=O)cc(C)n(CC(=O)N3CCOCC3)c12 | inconclusive: 0.259 µM [inhibitor, single point] | 
CN1CCN(c2ccc(NC(=O)c3ccc(Oc4ccccc4)cc3)cc2)CC1 | inconclusive: 35.5 µM [inhibitor, single point] | 
O=C1/C(=C/c2ccco2)SC(=S)N1c1cccnc1 | inconclusive: 14.1 µM [inhibitor, partial curve, poor fit] | 
COc1ccc(C(=O)NC(=S)N2CC(C)OC(C)C2)cc1OC (stereo unspecified) |  | inactive: 13% [at 46.1 µM]
COc1cccc(C(=O)Nc2ccc3c(c2)C(=O)c2ccccc2C3=O)c1 |  | inactive: 18.9%
Cc1cccc(OCC(O)CN2CCN(CCN3C(=O)c4cccc5cccc(c45)C3=O)CC2)c1C (stereo unspecified) | inconclusive: 29.1 µM [inhibitor, partial curve, poor fit] | 
CC1(C)CC(NC(=O)c2c(N)no[n+]2[O-])CC(C)(C)N1 | inconclusive: 0.631 µM [inhibitor, partial curve, poor fit] | 
Cc1occc1C(=O)Nc1cccc(C(=O)NCc2ccccc2)c1 | inconclusive: 20.6 µM [inhibitor, single point] | 
CCOc1cc(NC(=S)NCC2CCCO2)c(OCC)cc1NC(=O)CC(C)C (stereo unspecified) | inconclusive: 35.5 µM [inhibitor, single point] | 

SMILES | Potency | activity change, negative = inhibition
O=C(N/N=C/c1ccc(OCC(=O)N2CCCCC2)cc1)c1ccccc1O |  | inactive: -7.08%
CCC(=O)Nc1ccc(NC(=O)c2cccc(OC)c2)nc1 | inconclusive: 3.16 µM [activator, partial curve, poor fit] | 
COc1cccc(NC(=O)Cn2c(=O)n(-c3ccc(Cl)cc3)c(=O)c3sc4ccccc4c32)c1 |  | inactive: 4.57% [at 46.1 µM]
Cc1ccc(/C=N/Nc2nc(C)cc(C)n2)cc1 | inconclusive: 12.6 µM [activator, single point] | 
CCOc1ccc(/C=C/c2nc3ccccc3n2S(=O)(=O)c2ccc(Br)cc2)cc1 | inconclusive: 10 µM [activator, partial curve] | 
COc1ccccc1N1CCN(S(=O)(=O)c2c(C)sc3ncn(CC(=O)Nc4ccccc4F)c(=O)c23)CC1 |  | inactive: 1.09% [at 46.1 µM]
Cc1ccc(CN2CCSc3ccc(C(=O)NCc4ccco4)cc32)cc1 | inconclusive: 11.2 µM [inhibitor, partial curve, poor fit] | 
CCOC(=O)/C=C/C(=O)Nc1cc(S(=O)(=O)Nc2ccc(OC)cc2)ccc1N1CCOCC1 | inconclusive: 5.62 µM [inhibitor, partial curve, poor fit] | 
COc1ccccc1/C=C/C=N/NC(=O)c1ccco1 |  | inactive: 13.5% [at 46.1 µM]
Cc1occc1-c1nnc(SCC(=O)c2ccccc2)n1CC1CCCO1 (stereo unspecified) |  | inactive: 15%
Cc1cc(C)nc(N2CCC(C(=O)NCc3cccc(C(F)(F)F)c3)CC2)n1 |  | inactive: 5.91%
Cc1[nH]c2ccccc2c1/C=C(\C#N)C(=O)NCc1ccccc1 | inconclusive: 11.2 µM [inhibitor, partial curve] | 
COc1ccc2nc(NC(=O)C3CCCN3S(=O)(=O)c3ccc(C)cc3)sc2c1 (stereo unspecified) | inconclusive: 25.1 µM [inhibitor, single point] | 
CC(C)(C)c1nnc(NC(=O)CS(=O)(=O)Cc2ccccc2)s1 |  | inactive: -2.86%
Cc1nnc2c(Nc3cccc(O)c3)nc3ccccc3n12 |  | inactive: 4.48% [at 46.1 µM]
N#CC1(c2ccc(NC(=O)c3ccccc3F)cc2)CCCC1 | inconclusive: 12.6 µM [inhibitor, partial curve, poor fit] | 
Cc1cccc(NC(=O)Nc2cccc(F)c2)n1 | inconclusive: 11.2 µM [activator, partial curve] | 
CC(Oc1nc2c(c(=O)n(C)c(=O)n2C)n1C)C1CCCCC1 (stereo unspecified) | inconclusive: 8.91 µM [inhibitor, partial curve, poor fit] | 
CC(OC(=O)c1c(F)cccc1F)C(=O)NCCC1=CCCCC1 (stereo unspecified) | inconclusive: 20 µM [inhibitor, partial curve, poor fit] | 
Cc1ccc(OCC(=O)N2N=C(C(F)(F)F)CC2(O)C(C)(C)C)cc1C (stereo unspecified) | inconclusive: 5.17 µM [inhibitor, partial curve] | 
COc1ccc(C(=O)COC(=O)c2c(-c3ccccc3)noc2C)c(OC)c1 |  | inactive: -27.3% [at 46.1 µM]
COc1ccc(/C=N/Nc2ncnc3scc(-c4ccccc4)c23)cc1OC |  | inactive: -29.5%
Cc1ccc2c(c1)C1CN(C)CCC1N2C(=O)Nc1cccc(Cl)c1 (stereo unspecified) | inconclusive: 18.3 µM [inhibitor, partial curve, poor fit] | 

Reformatted: entries from further up.
CCOc1ccc(/C=C/c2nc3ccccc3n2S(=O)(=O)c2ccc(Br)cc2)cc1
  Potency: inconclusive: 10 µM [activator, partial curve]
COc1ccccc1N1CCN(S(=O)(=O)c2c(C)sc3ncn(CC(=O)Nc4ccccc4F)c(=O)c23)CC1
  activity change, negative = inhibition: inactive: 1.09% [at 46.1 µM]
